Reference: PubChem BioAssay AID2685 (National Center for Advancing Translational Sciences (NCATS), 2010)
The other results are listed elsewhere or left out. Further columns of the screen follow, without active or inactive calls. The list favours compounds with an active or inconclusive main result. Potencies come from curve fits of mixed quality, noted in brackets.

Assay: qHTS Assay for Lipid Storage Modulators in Drosophila S3 Cells;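 on cell number change: cells counted by Cell Tracker Red CMTPX staining in the red channel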
Settings: BODIPY lipid droplet fluorescence, 18-24 h; for cell number change: measured here: cell count max response, cells fed with added oleic acid
Summary of the method: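 Laser-scanning cytometry quantifies lipid droplet accumulation (500–530 nm total intensity; droplet/cell object ratio) in oleic acid-fed (400 uM added) Drosophila S3 cells treated with a concentration series. 20 uM Triacsin C defined 100% inhibition.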

[1] = measured here: cell number channel AC50, cells fed with added oleic acid
[2] = measured here: lipid fluorescence (Fed channel) AC50, cells fed with added oleic acid

SMILES | cell number change [%] | AC50 [1] | AC50 [2]
COC(=O)c1ccc2c(=O)n(CCCCCC(=O)NCc3ccc4c(c3)OCO4)c(=O)[nH]c2c1 | 5.83 | – | –
Oc1cccc(/C=N/NC(=S)NCCN2CCOCC2)c1O | 64.3 | 20.6 µM [rising, single point] | 18.4 µM [rising, single point]
Cc1ccc(CN2[C@@H]3c4ccccc4C[C@@H]3OCCS2(=O)=O)cc1 | -2.69 | – | 0.651 µM [falling, single point]
CCc1nc2c(n1O)CCc1nonc1-2 | 5.22 | – | 20.6 µM [falling, partial curve]
NS(=O)(=O)c1ccc(NC(=O)c2ccc(S(=O)(=O)N3CCc4ccccc43)cc2)cc1 | -6.85 | 0.116 µM [falling, full curve, poor fit] | 0.116 µM [falling, full curve, poor fit]
Cc1ccc(C(=O)N/C(=C\c2ccc(-c3cccc([N+](=O)[O-])c3)o2)C(=O)NCCCN(C)C)cc1 | -4.05 | – | 1.46 µM [rising, partial curve]
COC(=O)Cc1ccc(N(Cc2ccccc2F)S(=O)(=O)c2ccc(C)cc2)cc1 | 20.5 | – | 4.11 µM [rising, full curve]
Cc1ccc(C)c(N(CC(=O)NC2CCCC2)C(=O)CCC(=O)Nc2cc(C)on2)c1 | 28.2 | – | –
O=C(CN1CCC(NC(=O)Nc2ccccc2)CC1)Nc1ccccc1F | -2.02 | – | 7.31 µM [rising, partial curve]
COc1ccccc1N1CCN(CC(=O)Nc2ccc(Cl)c(C(F)(F)F)c2)CC1 | -41.4 | 16.4 µM [falling, partial curve] | 20.6 µM [falling, partial curve]
O=C(CN1C(=O)NC2(CCCCCC2)C1=O)N1CCN(c2ccccc2)CC1 | -2.51 | – | 0.082 µM [falling, full curve, poor fit]
CN(c1ccccc1)S(=O)(=O)c1cccc(C(=O)Nc2nccs2)c1 | -46.8 | 20.6 µM [falling, single point] | 6.51 µM [rising, partial curve, poor fit]
NC(=O)c1ccccc1NC(=O)/C=C/C(=O)O | -14.3 | 0.164 µM [falling, full curve, poor fit] | 0.731 µM [falling, full curve]
COc1cc(C(=O)NC(c2ccccc2)c2ccccc2)cc(OC)c1C | 12.4 | – | –
CCN(CCN(C)C)C(=O)Cn1ncc2c1-c1cc(C)ccc1OC2 | – | – | 0.00461 µM [rising, full curve, poor fit]
CCOC(=O)CC1C(=O)NCCN1c1nc2ccc(C)cn2c(=O)c1/C=C1\SC(=S)N(CC(C)C)C1=O (configuration not stated) | -56.6 | 29.1 µM [falling, single point] | 4.61 µM [falling, full curve]
COc1ccccc1C(=O)Nc1nnc(C)s1 | 42.3 | – | 2.06 µM [rising, partial curve]
O=C(c1sc2cccc(Cl)c2c1Cl)N1CCN(CCc2ccccn2)CC1 | 27.4 | – | 20.6 µM [rising, single point]
CC1CCN(S(=O)(=O)c2ccccc2[N+](=O)[O-])CC1 | -5.02 | – | 6.51 µM [falling, single point]
Cn1c(=O)[nH]c(=O)c2c1nc(Br)n2Cc1cccc(Br)c1 | 37.6 | 0.0116 µM [rising, full curve, poor fit] | 29.1 µM [falling, single point]

SMILES | cell number change [%] | AC50 [1] | AC50 [2]
COc1ccc(NC(C)=O)cc1NC(=O)CSc1nnc(-c2cccnc2)n1C | 10 | – | 0.58 µM [rising, full curve]
COc1ccc(C2=NN(C(=O)c3cccs3)C(c3ccccc3OC)C2)cc1OC (configuration not stated) | 13.3 | – | –
Oc1cncc(-c2cccnc2)c1 | -0.678 | – | 4.61 µM [rising, partial curve, poor fit]
COc1ccc(CC(=O)OCC(=O)N2CCCc3ccccc32)cc1OC | – | – | 6.51 µM [rising, single point]
Cc1cc(C)c(C(=O)OCCNC(=O)c2cccnc2)cc1C | -15 | – | 2.06 µM [rising, partial curve, poor fit]
COc1cc2nc(N3CCNCC3)nc(N)c2cc1OC | -5.81 | 6.51 µM [falling, single point] | –
c1ccc(-c2[nH]ncc2CN2CCc3ccccc3C2)cc1 | -43.3 | 0.92 µM [falling, full curve] | 0.517 µM [falling, full curve]
Cc1onc(-c2c(F)cccc2Cl)c1C(=O)NC1CCCCCC1 | -7.89 | – | –
COc1cnn(-c2ccccc2)c(=O)c1SCc1ccc(Cl)c(Cl)c1 | -27.8 | – | –
Cc1ccc(C)c(S(=O)(=O)N2CCN(C(=O)CSc3ccccc3)CC2)c1 | 2.7 | – | 0.651 µM [rising, partial curve, poor fit]
CCCCn1nc2cc(C(=O)NCc3cc(C(F)(F)F)cc(C(F)(F)F)c3)ccc2c1OC | – | – | 0.58 µM [rising, single point]
Cc1ccc(/C=N/NC(=O)c2ccc(-n3cnnn3)cc2)cc1 | 6.19 | – | 32.6 µM [rising, single point]
O=[N+]([O-])c1ccc(S(=O)(=O)Nc2nc3ccccc3nc2Nc2ccccc2)cc1 | -23.5 | 3.66 µM [falling, single point] | 2.91 µM [falling, full curve, poor fit]
O=C(NC(=S)NCC1CCCO1)c1ccc(Cl)cc1 (configuration not stated) | 14.7 | – | 0.517 µM [rising, full curve, poor fit]
C[C@H]1CN=C(Nc2ccccc2)N1CC1CCC1 | 18.6 | – | 29.1 µM [rising, single point]
Cc1ccc(NS(=O)(=O)c2ccc(C(=O)N3CCCCCCC3)cc2)cc1 | -21.1 | – | 6.51 µM [rising, single point]
COc1cc([N+](=O)[O-])ccc1NC(=O)CSc1nncn1-c1cccnc1 | 4.58 | – | –
Cc1ccccc1NC(=O)NCC1CCN(C(=O)OC(C)(C)C)CC1 | -27.9 | – | 16.4 µM [falling, partial curve, poor fit]
COCCCNC(=O)CCc1ccc(S(=O)(=O)Nc2ccc(C)cc2)cc1 | 139 | 5.17 µM [rising, partial curve] | –
CC(=O)c1ccc(NC(=O)C2CCCN(S(=O)(=O)c3c(C)[nH]c(=O)[nH]c3=O)C2)cc1 (configuration not stated) | -29.6 | – | 1.16 µM [falling, full curve]

Reformatted: eleven of the compounds above.
SMILES,cell number change [%],AC50 [1],AC50 [2]
COc1ccc(CC(=O)OCC(=O)N2CCCc3ccccc32)cc1OC,–,–,"6.51 µM [rising, single point]"
Cc1cc(C)c(C(=O)OCCNC(=O)c2cccnc2)cc1C,-15,–,"2.06 µM [rising, partial curve, poor fit]"
COc1cc2nc(N3CCNCC3)nc(N)c2cc1OC,-5.81,"6.51 µM [falling, single point]",–
c1ccc(-c2[nH]ncc2CN2CCc3ccccc3C2)cc1,-43.3,"0.92 µM [falling, full curve]","0.517 µM [falling, full curve]"
Cc1onc(-c2c(F)cccc2Cl)c1C(=O)NC1CCCCCC1,-7.89,–,–
COc1cnn(-c2ccccc2)c(=O)c1SCc1ccc(Cl)c(Cl)c1,-27.8,–,–
Cc1ccc(C)c(S(=O)(=O)N2CCN(C(=O)CSc3ccccc3)CC2)c1,2.7,–,"0.651 µM [rising, partial curve, poor fit]"
CCCCn1nc2cc(C(=O)NCc3cc(C(F)(F)F)cc(C(F)(F)F)c3)ccc2c1OC,–,–,"0.58 µM [rising, single point]"
Cc1ccc(/C=N/NC(=O)c2ccc(-n3cnnn3)cc2)cc1,6.19,–,"32.6 µM [rising, single point]"
O=[N+]([O-])c1ccc(S(=O)(=O)Nc2nc3ccccc3nc2Nc2ccccc2)cc1,-23.5,"3.66 µM [falling, single point]","2.91 µM [falling, full curve, poor fit]"
O=C(NC(=S)NCC1CCCO1)c1ccc(Cl)cc1 (configuration not stated),14.7,–,"0.517 µM [rising, full curve, poor fit]"

Carrying on:

SMILES | cell number change [%] | AC50 [1] | AC50 [2]
OC/C(Br)=C(\Br)CO | -0.565 | – | 8.2 µM [rising, single point]
O=C(CN1C(=O)NC2(CCCCCC2)C1=O)NC1CCCCCCC1 | -0.541 | 4.11 µM [falling, single point] | 2.59 µM [falling, partial curve]
CN(C)CC1CCCCC1OC(=O)c1ccc(S(=O)(=O)N(C)c2ccccc2)cc1 (configuration not stated) | -24.6 | – | 0.58 µM [falling, single point]
O=C(CCCC(=O)N(CC(=O)NC1CCCCC1)Cc1ccccc1)Nc1ccccn1 | 33.5 | 18.4 µM [rising, single point] | –
O=C(NC1CC2CCCC(C1)N2Cc1ccccc1)c1ccc([N+](=O)[O-])cc1 (configuration not stated) | 11.1 | – | 2.59 µM [falling, single point]
Cc1ccc(N(CC(O)CN(C)C)S(=O)(=O)c2ccccc2)cc1 (configuration not stated) | – | – | 5.8 µM [falling, partial curve]
CC(C)(C)OC(=O)CN1C(=O)NC2(CCCc3ccccc32)C1=O (configuration not stated) | 20.3 | – | 23.1 µM [rising, single point]
C[C@H](N)c1nnc(SCC(N)=O)o1 | -7.34 | – | –
CCN(CC(=O)Nc1cccc(OC)c1)C(=O)c1ccc(C)s1 | – | – | 0.731 µM [rising, single point]
Cc1sc2c(c1C)CN(Cc1ccncc1)CN2C(=O)c1ccco1 | – | 1.16 µM [rising, partial curve] | –
CCOc1cc(C#N)ccc1OCC(=O)NNC(=O)CC1CCS(=O)(=O)C1 (configuration not stated) | 21.5 | – | –
COc1ccc(S(N)(=O)=O)cc1C(=O)NCCCN1CCN(c2cccc(Cl)c2)CC1 | 186 | 0.411 µM [rising, partial curve, poor fit] | 0.00461 µM [rising, full curve, poor fit]
O=c1c(/C=C(\O)c2ccccc2)nc2ccccc2n1-c1ccccc1 | 65.7 | 2.91 µM [rising, full curve] | 2.31 µM [rising, partial curve]
CCn1c(SCC(=O)N(C)CC(=O)Nc2ccc(OC)cc2)nnc1-c1ccco1 | 11.5 | – | –
COc1ccc(OC)c(C2CC(=O)Nc3cc(OC)c(OC)c(OC)c32)c1 (configuration not stated) | 58.6 | 2.06 µM [rising, partial curve] | 1.46 µM [rising, full curve]
O=C(NCCCNC(=O)C(F)(F)C(F)F)C(F)(F)C(F)F | -38.6 | 29.1 µM [falling, single point] | 29.1 µM [falling, single point]
Cc1cc(Cl)cc(Cl)c1OCCOc1cccc2cccnc12 | 10.8 | 1.3 µM [rising, full curve] | 20.6 µM [rising, partial curve]
OCCOCCNc1ncnc2c1c(-c1ccccc1)cn2-c1ccccc1 | -10.2 | – | 29.1 µM [falling, single point]
Cc1ccccc1C1c2[nH]c3ccccc3c2CCN1Cc1cccn1-c1ncccn1 (configuration not stated) | 22.3 | 1.16 µM [rising, full curve, poor fit] | –
